The chains behind the UniProt entries cited, without tags or fusion partners.
UniProt P53350, whole entry, looked up: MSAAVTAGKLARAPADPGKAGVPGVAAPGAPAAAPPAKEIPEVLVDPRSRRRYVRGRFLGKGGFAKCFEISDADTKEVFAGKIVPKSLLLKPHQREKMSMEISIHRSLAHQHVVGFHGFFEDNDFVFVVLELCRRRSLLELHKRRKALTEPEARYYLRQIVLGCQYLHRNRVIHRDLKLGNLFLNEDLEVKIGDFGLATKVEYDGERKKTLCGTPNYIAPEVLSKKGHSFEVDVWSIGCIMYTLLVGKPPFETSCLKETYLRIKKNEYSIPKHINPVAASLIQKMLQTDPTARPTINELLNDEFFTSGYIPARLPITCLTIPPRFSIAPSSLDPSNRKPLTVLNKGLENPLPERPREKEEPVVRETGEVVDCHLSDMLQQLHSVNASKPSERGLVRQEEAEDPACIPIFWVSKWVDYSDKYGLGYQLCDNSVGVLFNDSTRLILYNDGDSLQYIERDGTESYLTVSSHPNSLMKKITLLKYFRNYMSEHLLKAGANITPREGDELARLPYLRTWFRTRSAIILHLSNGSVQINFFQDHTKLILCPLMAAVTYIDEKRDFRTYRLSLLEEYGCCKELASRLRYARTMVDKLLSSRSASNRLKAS

Screen size: about 360,000 compounds; about 10,000 (2.8%) were called active. The shares of active, inactive and inconclusive entries below differ from those in the screen. Calls follow the shape of the dose curve; as a rule, active = well fitted inhibition curve with a large enough effect; inconclusive = small, poorly fitted or top-dose-only effect; inactive = flat fitted curve, though single readings scatter. Potencies beside an inconclusive call are fits to weak or partial responses and may not hold up.
The compounds below were run against Serine/threonine-protein kinase PLK1 (Homo sapiens) (UniProt P53350) (assay: qHTS for Inhibitors of PLK1-PDB (polo-like kinase 1 - polo-box domain): Primary Screen). Details: Plk1 PBD binding of FITC phosphopeptide, fluorescence polarization.
`S=C(Cc1cccnc1)N1CCOCC1` was tested, and the Potency was active: 23.8 µM.
In the case of `Cc1cc(O)c(Sc2ccccc2)c(=O)o1`, the Potency is reported as inconclusive: 15 µM [inhibitor, partial curve].
With `N#Cc1c(C(F)(F)F)cc(-c2cccc(Cl)c2)[nH]c1=O` the Potency was active: 21.2 µM.
In the case of `COc1cc2ccccc2cc1C(=O)NC(=S)Nc1cccc(C(=O)O)c1C`, the Potency is reported as inconclusive: 37.7 µM [inhibitor, single point].
With `O=C1NC(=Nc2cccc([N+](=O)[O-])c2)SC1(CO)CO` the Potency was inconclusive: 26.7 µM [inhibitor, partial curve].
`CN(C)/C=N/c1cc(=O)n(Cc2ccccc2)c(=O)n1C` was tested, and the max response, negative = inhibition was inactive: -0.0765%.
`COc1ccccc1N1CCN(C(=O)CSc2ccccc2)CC1` was tested, and the max response, negative = inhibition was inconclusive: -31.9% [inhibitor].
With `CSc1ccc(-c2sc(Nc3cccc4ccccc34)n[n+]2-c2ccccc2)cc1` the Potency was inconclusive: 29.9 µM [inhibitor, single point].
With `CC(=O)Nc1ccc(SC[C@H](C)CN2CC[C@H](C(C)(C)C)CCC2=O)cc1` the Potency was inconclusive: 11.9 µM [inhibitor, single point].
With `COC(=O)Cn1c2ccc(C)cc2c2nc(C)sc21` the Potency was inconclusive: 26.7 µM [inhibitor, single point].
For `Cc1ccc(NS(=O)(=O)c2c(C(=O)N3CCCCCC3)c(C)n(C)c2C)cc1C`, the Potency was active: 21.2 µM.
In the case of `Brc1cc2c(cc1-c1nc3ccccc3s1)OCO2`, the Potency is reported as inconclusive: 11.9 µM [inhibitor, partial curve].
In the case of `O=C(N/C(=C\c1cccc([N+](=O)[O-])c1)C(=O)N1CCOCC1)c1ccco1`, the Potency is reported as inconclusive: 26.7 µM [inhibitor, single point].
`O=C(O)c1ccc2nc3c(nc2c1)-c1ccccc1C3=O` was tested, and the Potency was active: 29.9 µM.
In the case of `O=C(CSCc1c(Cl)cccc1Cl)Nc1cccnc1`, the Potency is reported as inconclusive: 33.6 µM [inhibitor, single point].
In the case of `COc1cc(/C=C(/C#N)c2ccc(F)cc2)ccc1OCc1ccc(C(=O)O)o1`, the Potency is reported as inconclusive: 29.9 µM [inhibitor, single point].
In the case of `O=C(Nc1cccc(S(=O)(=O)N2CCCCC2)c1)c1ccccc1NS(=O)(=O)c1ccc(F)cc1`, the max response, negative = inhibition is reported as inconclusive: -32.8% [inhibitor].
`Cc1cc(N2CCOCC2)nc2ccc(NC(=S)NCCN(C)C)cc12` was tested, and the Potency was inconclusive: 23.8 µM [inhibitor, partial curve].
For `CC1CN(CCCCOc2ccc3ccccc3c2)CC(C)O1` (stereo not given), the max response, negative = inhibition was inactive: -9.01%.
In the case of `COCCNc1oc(/C=C/c2ccccc2OC)nc1S(=O)(=O)c1ccccc1`, the max response, negative = inhibition is reported as inconclusive: -30.8% [inhibitor].
% is scaled to controls: 0 for no effect and ±100 for the full control effect; potency is read from the fitted curve at half-maximal effect.
Also: nearly all actives have a fitted effect of over 65% in size.
For max response, negative = inhibition in this document: series mostly up to about 57 µM.
